The assay is described as follows: IkB Signaling. The settings on record: ABC-DLBCL IkBa-CBG/CBR dual luciferase ratio (green luciferase fused to IkBa over red control in OCI-Ly3 lymphoma cells), 4 h. The essentials:
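In this assay, an IκBα–CBG68 fusion accumulates when IKK-driven degradation is blocked; native CBR normalizes for cell number. OCI-Ly3 cells were treated 4 h with compound and doxycycline, then green and red light read after Chroma-Glo addition.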

Where [1] appears, read: measured here: IkB-luc green channel.
[2] abbreviates: measured here: control luc red channel.
Setting [3] is: measured here: control luc red channel unless noted.

The record followed here is PubChem BioAssay AID445 (National Center for Advancing Translational Sciences (NCATS), 2006).

The list shows a part of the results. These are further read-outs of the screen, such as a control signal, another cell line or another target. No call is given for them. Most of these compounds were active or inconclusive in the main read-out, so they are no random draw. The note in brackets gives the kind of curve behind each potency; many fits are weak.

Regarding `CCCc1ccc(Oc2c(-c3ccc(O)c(C)c3O)n[nH]c2C)cc1`, the AC50 reads like this: under setting [1], 39.8 µM [falling, single point]; under setting [2], 31.6 µM [falling, single point].

For `Cc1ccc(CCNC(=O)Cn2nc(C)c3c(C)n(-c4ccc(C)cc4)nc3c2=O)cc1`, under setting [3], the AC50 was 25.1 µM [falling, partial curve].

`Cc1cccc(CNC(=O)c2ccc(-c3nc(CS(=O)(=O)c4ccccc4)c(C)o3)cc2)c1`: under setting [3], the AC50 was 3.16 µM [falling, full curve, poor fit].

As to `Cc1ccc(NC(=O)COc2ccc3oc4c(c3c2)CCCC4)c(C)c1`, the AC50 under setting [3] is 39.8 µM [falling, single point].

Turning to `Cc1noc2ncnc(Nc3ccc(F)cc3)c12`, the AC50 under setting [3] was 0.00631 µM [rising, full curve, poor fit].

`COc1cccc2cc(-c3nnc(Nc4ccccc4C)s3)c(=O)oc12`: under setting [3], the half-maximal activity concentration (AC50) is 1.26 µM [falling, partial curve].

As to `COc1ccccc1N1CCN(C(=O)CCn2cnc3onc(-c4ccc(F)cc4)c3c2=O)CC1`, under setting [3], the AC50 is 15.8 µM [falling, partial curve].

Regarding `N#Cc1cccc(-c2nc3cnc(Nc4ccccc4)nc3n(C[C@H]3CCCO3)c2=O)c1`, the AC50 under setting [3] is 3.16 µM [falling, partial curve] [measured here: IkB-luc green channel].

As for `Cc1ccc(CCNC(=O)NCc2noc3ccc(C)cc23)cc1`, the AC50 under setting [3] was 39.8 µM [falling, single point].

On to `COC(=O)c1ccc(O)c(Sc2cc(C(=O)OC)ccc2O)c1`, for which the AC50 under setting [3] is 10 µM [falling, partial curve].

As for `Cc1cccc(NC(=O)Cn2cc(S(=O)(=O)c3ccc(F)cc3)c(=O)c3cc4c(cc32)OCO4)c1`, the AC50 under setting [3] was 39.8 µM [falling, single point].

As to `CC(=O)c1cccc(NC(=O)c2cnn(-c3cccc(C)c3)c2-n2cccc2)c1`, the AC50 under setting [3] is 0.316 µM [falling, partial curve].

With `CCC(=O)N1CCc2cc(Br)cc(S(=O)(=O)NCCc3ccccc3Cl)c21`, the AC50 under setting [3] was 25.1 µM [falling, partial curve].

As to `Cc1ccc(C)c(NC(=O)N2CC=C(c3c[nH]c4ccccc34)CC2)c1`, under setting [3], the AC50 is 12.6 µM [falling, partial curve].

As to `Cn1c(CSCc2ccc(Cl)c(Cl)c2)nnc1SCC(=O)Nc1nccs1`, the AC50 under setting [3] was 3.16 µM [falling, full curve].

Consider `CC#C[C@@]1(O)CC[C@@H]2[C@@H]3CCC4=CC(=O)CCC4=C3[C@@H](c3ccc(N(C)C)cc3)C[C@]21C`, for which the AC50 under setting [3] is 7.94 nM [rising, full curve] [measured here: IkB-luc green channel].

As to `Cc1cccc(OCc2nnc(SCC(=O)OC3CCCCC3)o2)c1`, the AC50 under setting [3] was 25.1 µM [falling, single point].

In the case of `COc1ccc(Nc2ccc3cc(S(=O)(=O)N4CCCC4)ccc3n2)cc1Cl`, the AC50 under setting [3] is 7.94 µM [rising, partial curve].

Regarding `COc1ccccc1OCC(=O)N(Cc1ccc(N(C)C)cc1)CC1CCCO1` (stereo not drawn), the AC50 under setting [3] was 25.1 µM [falling, single point].

Regarding `CCCCN(Cc1ccccc1)C(=O)CN(C)S(=O)(=O)c1ccc2c(c1)c(=O)n(C)c(=O)n2C`, the concentration at half-maximal activity (AC50) under setting [3] is 39.8 µM [falling, single point].

Regarding `Cc1cccc(OCc2ccc(-c3nc(C#N)c(N4CCC(C(N)=O)CC4)o3)o2)c1`, the AC50 under setting [3] was 25.1 µM [falling, single point].

With `CCc1cc2c(cc3c(=O)n(CCCC(=O)NCc4ccccc4Cl)nc(CC)n32)s1`, the AC50 under setting [3] was 25.1 µM [falling, partial curve].

Turning to `CCOC(=O)c1cccc(NC(=O)CC2C(=O)N(c3ccc(F)cc3)C(=O)N2C(C)C)c1` (stereo not drawn), under setting [3], the AC50 was 31.6 µM [falling, single point].

As to `Cc1ccc(-c2nc3ncccc3o2)cc1NC(=O)COc1ccc(C(C)C)cc1`, the AC50 under setting [3] was 31.6 µM [falling, single point].

As for `COc1ccc(NC(=O)C(Cc2ccccc2)NS(=O)(=O)c2ccc(Br)s2)cc1OC` (stereo not drawn), under setting [3], the AC50 is 15.8 µM [falling, partial curve].

Regarding `CS(=O)(=O)c1ccc(Cn2c3c(c4cc(F)cc(F)c42)CCC[C@H]3CC(=O)O)cc1`, the AC50 under setting [3] is 3.98 µM [falling, partial curve, poor fit].

On to `Cc1ccc(C)c(N2CCN(C(=O)CCS(=O)(=O)c3cccc4nonc34)CC2)c1`, for which the AC50 under setting [3] was 10 µM [falling, partial curve].

As to `COc1ccc(OC)c(CCNC(=O)c2cc3c(-c4ccccc4F)nn(C)c3s2)c1`, the AC50 under setting [3] was 12.6 µM [falling, partial curve].

Turning to `COc1ccc(C)cc1NS(=O)(=O)c1ccc2c(c1)[C@H]1C=CC[C@H]1[C@@H](c1cccc(Cl)c1)N2`, the AC50 under setting [3] was 7.94 µM [falling, partial curve].

Regarding `O=S(=O)(Nc1cccc2ncccc12)c1cccs1`, the AC50 under setting [1] is 0.794 µM [rising, full curve] and the AC50 under setting [2] is 0.794 µM [rising, full curve].

As for `COc1ccccc1CCNC(=O)CCn1c(=O)c2cccn2c2ccc(F)cc21`, the half-maximal activity concentration (AC50) under setting [3] is 10 µM [falling, partial curve].

Turning to `CCOc1cc(C(=O)Nc2ccc3oc(-c4ccc(CC)cc4)nc3c2)cc(OCC)c1OCC`, the AC50 under setting [3] is 10 µM [falling, partial curve].

As for `O=C(CCc1nc(-c2ccccc2F)no1)Nc1cccc(C(F)(F)F)c1`, under setting [3], the AC50 is 31.6 µM [falling, single point].

Regarding `Cc1ccc(C)c(N2CCN(C(=O)c3cccc(-n4c(C)nc5cccnc54)c3)CC2)c1`, the AC50 under setting [3] is 12.6 µM [falling, partial curve].

Take `Cc1ccc(CC(=O)N(Cc2nc(-c3ccc(C)cc3)no2)C(C)C)cc1`: under setting [3], the AC50 is 12.6 µM [falling, partial curve].

In the case of `O=C(CN1C(=O)c2cccc3cccc1c23)N1CCN(Cc2ccc3c(c2)OCO3)CC1`, the AC50 under setting [3] is 31.6 µM [falling, partial curve].

With `O=C(Nc1ccn(-c2ccccc2)n1)c1ccc(S(=O)(=O)N2CCCCCC2)cc1`, the AC50 under setting [3] was 3.16 µM [falling, full curve, poor fit].

`CCOc1ccc(OCC)c(NC(=O)c2cc(C)nc3c2c(C)nn3-c2cccc(Cl)c2C)c1`: under setting [3], the AC50 was 0.00794 µM [falling, full curve, poor fit].

`CC1CCc2nc(NC(=O)CSc3nc4ccccc4o3)sc2C1` (stereo not drawn): the AC50 under setting [3] was 1.58 µM [falling, full curve, poor fit].

For `COCCCNc1ncnc2c1c(-c1ccccc1)cn2-c1ccc(C)c(Cl)c1`, under setting [3], the AC50 was 25.1 µM [falling, single point].

For `CCn1c(CN2CCN(c3cccc(Cl)c3)CC2)nc2c1c(=O)[nH]c(=O)n2C`, the AC50 under setting [3] is 39.8 µM [falling, single point].

`O=C(COc1ccc(Cl)cc1)Nc1cc(-c2ccccc2)no1`: the AC50 under setting [3] was 3.16 µM [rising, single point].

Take `C[C@@H]1C[C@H]2[C@@H]3CCC4=CC(=O)C=C[C@]4(C)[C@@]3(F)[C@@H](O)C[C@]2(C)[C@@]1(O)C(=O)CO`: the AC50 is 0.00316 µM [rising, full curve, poor fit] under setting [1] and 0.0158 µM [rising, full curve, poor fit] under setting [2].

For the compound `COc1ccc(OC)c(NC(=O)CN2C(=O)CC(c3ccco3)Sc3ccccc32)c1` (stereo not drawn), under setting [3], the AC50 is 20 µM [falling, single point].

As to `Cc1ccc(N2CC(c3nnc(Cc4ccc(Cl)cc4)o3)CC2=O)cc1` (stereo not drawn), under setting [3], the half-maximal activity concentration (AC50) is 20 µM [falling, single point].

With `CNS(=O)(=O)c1cn(CC(=O)Nc2ccc(F)cc2F)cc1S(=O)(=O)NC`, the AC50 under setting [3] was 39.8 µM [rising, partial curve].

With `COC(=O)c1ccccc1NC(=O)CN1CCC(n2nnc3cc(F)ccc32)CC1`, the AC50 under setting [3] was 2 µM [falling, full curve].

`Cc1cccc(C(=O)Nc2ccc(-c3nc4ccccc4s3)c(C)c2)c1`: the AC50 under setting [3] is 3.98 µM [rising, partial curve, poor fit].

With `COc1ccc(N2CCN(CC(O)COc3ccccc3C(C)(C)C)CC2)cc1` (stereo not drawn), the AC50 under setting [3] is 31.6 µM [falling, partial curve].

On to `Cc1ccc(C(=O)Nc2cccc(C(=O)OCc3cc(=O)n4c5c(sc4n3)CCCC5)c2)cc1`, for which, under setting [3], the AC50 was 0.501 µM [falling, full curve].

In the case of `Cc1ccc(NC(=O)C2CCCN(S(=O)(=O)c3cccc4cccnc34)C2)cc1Cl` (stereo not drawn), under setting [3], the AC50 is 39.8 µM [falling, single point].

As for `Cc1ccc2[nH]cc(C(c3ccccc3)c3cccs3)c2c1` (stereo not drawn), the AC50 under setting [3] was 39.8 µM [falling, single point].

For `Cc1ccc(-c2nc(-c3nccc4ccccc34)oc2-c2ccccc2)cc1`, the AC50 under setting [3] is 3.16 µM [falling, partial curve].

Turning to `CCCCN(CC)C(=O)Cn1c(=O)n(-c2ccc(OCC)cc2)c(=O)c2c3c(sc21)CCC3`, the AC50 under setting [3] is 39.8 µM [falling, single point].

`Cc1ccccc1NC(=O)c1ccccc1O`: the AC50 under setting [3] was 25.1 µM [falling, single point].

`Cc1ccc(C2CCN(C(=O)c3cnn(-c4ccccc4Cl)c3C3CCN(C(=O)OC(C)(C)C)CC3)C2)cc1` (stereo not drawn): under setting [3], the AC50 is 12.6 µM [falling, partial curve].

With `O=C(Nc1cccc(C(=O)OCc2cc(=O)n3c4c(sc3n2)CCCC4)c1)c1ccccc1`, the AC50 under setting [3] was 1 µM [falling, full curve].

In the case of `O=C(c1nc2ccccc2s1)N1CCN(c2ccccn2)CC1`, the AC50 under setting [3] was 10 µM [falling, partial curve].

Consider `O=c1[nH]c(-c2cccs2)nc2ccccc12`, for which, under setting [3], the AC50 is 20 µM [falling, partial curve].

Regarding `CCOc1ccc(S(=O)(=O)Nc2nc3ccccc3nc2Nc2ccc(OC)cc2)cc1`, the AC50 under setting [3] was 3.16 µM [falling, partial curve].

By AC50 is commonly meant the midpoint of the concentration-response curve, whichever way the signal moves.
